Data on one molecule can be found in article PMC11705415.

By UniProt entry, the sequences of proteins in these tests, tags left out. Where a name states a change or a piece, a line headed by the entry shows the natural chain unless it says otherwise.
UniProt P62069: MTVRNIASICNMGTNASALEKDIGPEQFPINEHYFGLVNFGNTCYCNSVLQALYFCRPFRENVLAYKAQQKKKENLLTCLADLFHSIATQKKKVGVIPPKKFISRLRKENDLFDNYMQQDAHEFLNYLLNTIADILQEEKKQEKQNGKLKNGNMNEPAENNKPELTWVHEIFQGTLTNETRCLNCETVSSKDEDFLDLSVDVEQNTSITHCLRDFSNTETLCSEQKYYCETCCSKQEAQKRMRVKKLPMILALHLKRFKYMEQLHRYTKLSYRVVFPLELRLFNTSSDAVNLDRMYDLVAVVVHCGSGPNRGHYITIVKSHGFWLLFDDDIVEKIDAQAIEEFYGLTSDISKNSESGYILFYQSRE

These are yes or no findings as the source states them, for the method shown. In cells and extracts the contact can be indirect. A yes stands for co-enrichment or nearness to the bait. Other partners may have been found.

Assay [1] has as its target USP46-WT-BirA(R118G)-HA fusion protein (mouse) (UniProt P62069). Description: proximity labelling; BioID: knock-in Neuro2a cells stably expressing USP46 (WT or ΔK92)-BirA(R118G)-HA, 50 μM biotin for 24 h; lysis in TNE buffer with 0.1% Triton X-100; streptavidin Mag Sepharose pull-down, SDS-PAGE, LC-MS/MS; proteins of the CRAPome list and of intact Neuro2a cells excluded.

For assay [2], the target named is USP46-ΔK92-BirA(R118G)-HA fusion protein (mouse) (UniProt P62069). The assay is described as above.

B1: DMWD (protein, UniProt Q08274 1-665)
chain: MAAGGAEGGPGPSAAMGDCAEIKSQFRTREGFYKLLPGDATRRSGPTSAQTPAPPQPTQPPPGPAAASGPGAAGPASSPPPAGPGPGPALPAVRLSLVRLGDPDGAGEPPSTPSGLGAGGDRVCFNLGRELYFYPGCCRSGSQRSIDLNKPIDKRIYKGTQPTCHDFNQFTAATETISLLVGFSAGQVQYLDLIKKDTSKLFNEERLIDKTKVTYLKWLPESESLFLASHASGHLYLYNVSHPCTSTPPQYSLLKQGEGFAVYAAKSKAPRNPLAKWAVGEGPLNEFAFSPDGRHLACVSQDGCLRVFHFDSMLLRGLMKSYFGGLLCVCWSPDGRYVVTGGEDDLVTVWSFTEGRVVARGHGHKSWVNAVAFDPYTTRAEEAASASADGDPSGEEEEPEVTSSDTGAPVSPLPKAGSITYRFGSAGQDTQFCLWDLTEDVLSPHPSLARTRTLPGTPGATPPASGSSRAGETGAGPLPRSLSRSNSLPHPAGGGKAGGPSASMEPGIPFSIGRFATLTLQERRDRGAEKEHKRYHSLGNISRGGSGGNSSNDKLSGPAPRSRLDPAKVLGTALCPRIHEVPLLEPLVCKKIAQERLTVLLFLEDCIITACQEGLICTWARPGKAFTDEETEAQAGQASWPRSPSKSVVEGISSQPGSSPSGTVV
modifications: biotin (proximity-dependent biotinylation, sites not stated)
Regarding B1, the binding result in assay [1] and in assay [2] was “binds” each time.
